Data from paper PMC6929503.
No constants are given. Whether binding was seen depends on the method and setting. In cells and extracts the contact can be indirect. Binding can be weak; no strength is given. Tags and fused reporters may be left off the sequences shown.

Key:
[1] = target: HA-tagged human progranulin (human); experiment: co-IP; HEK-293 cells co-transfected with HA-GRN and/or GBA-myc-Flag, harvested after 48 h in 50 mM Tris, 150 mM NaCl, 5 mM EDTA, 1% Triton X-100, 0.1% sodium deoxycholate; HA-progranulin immunoprecipitated from 100 μg lysate protein with anti-HA antibody; blotted for Flag
[2] = target: HA-tagged human progranulin (human); experiment: proximity ligation; HEK-293 cells transfected with GBA-myc-Flag and HA-GRN, fixed 48 h later; anti-HA and anti-Flag antibodies, Duolink proximity ligation kit; controls: one construct only, or no primary antibodies

binding [1]: binds
binding [2]: binds
B1: myc-Flag-tagged human GCase (β-glucocerebrosidase) (enzyme, UniProt P04062 40-536)
chain: ARPCIPKSFGYSSVVCVCNATYCDSFDPPTFPALGTFSRYESTRSGRRMELSMGPIQANHTGTGLLLTLQPEQKFQKVKGFGGAMTDAAALNILALSPPAQNLLLKSYFSEEGIGYNIIRVPMASCDFSIRTYTYADTPDDFQLHNFSLPEEDTKLKIPLIHRALQLAQRPVSLLASPWTSPTWLKTNGAVNGKGSLKGQPGDIYHQTWARYFVKFLDAYAEHKLQFWAVTAENEPSAGLLSGYPFQCLGFTPEHQRDFIARDLGPTLANSTHHNVRLLMLDDQRLLLPHWAKVVLTDPEAAKYVHGIAVHWYLDFLAPAKATLGETHRLFPNTMLFASEACVGSKFWEQSVRLGSWDRGMQYSHSIITNLLYHVVGWTDWNLALNPEGGPNWVRNFVDSPIIVDITKDTFYKQPMFYHLGHFSKFIPEGSQRVGLVASQKNDLDAVALMHPDGSAVVVVLNRSSKDVPLTIKDPAVGFLETISPGYSIHTYLWRRQ
